We go through 104 sequences from PubChem BioAssay AID1347423 (Functional Genomics Laboratory (NCATS/FGL), 2020).

The campaign covered roughly 52,000 sequences. About 210 (0.4%) were called active.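 The calls were made as follows: active = gene whose silencing raises cell survival under the drug, median off-target-corrected z-score across its silencing RNAs 2 or more; inactive = the rest.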 Some of the results follow.

This assay is described as follows: Resistance to Poly (ADP-Ribose) Polymerase inhibitor: Gene Identification via Genome-wide siRNA Screen. The settings on record: mouse BRCA2 R2336H ES cells, olaparib, CellTiter-Glo viability; active compounds read high. In outline: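 Genome-wide siRNA screen (3 siRNAs/gene, 20 nM) in mouse ES cells carrying hypomorphic BRCA2 R2336H; olaparib 500 nM added 48 h post-transfection, CellTiter-Glo viability 72 h later. Normalized to plate-median negative control; MAD z-scores, gene median, seed-adjusted.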
For orientation: In ATP-based viability assays light output follows the ATP content of the culture.
With GGAGCAGAUUGCAUUUGAGTT against AW548124, the z-score is inactive: 0.281. On to CAGCUGAGAUUGAUGGCCATT against Olfr313, for which the z-score is inactive: -2.2. Take GCCGUUUAAAACUUGCUAUTT against Trpc6: the z-score was inactive: -0.117. The value for GCAAGAGUCUUGGCCCUCATT against BC023055 was inactive: -0.324; that for GGAAGAUUUCUUCAAACGCTT against Lhx4 was inactive: 1.6; that for “GGGAAUUUGUGAGCUAGAATT against 2810452K22Rik” was inactive: -2.95. The value for GGCUUUCGCUGGGCAAAAUTT against Uts2 was inactive: -2.24. The figure for “GGAACAAAAAUGUUGACCATT against 2610009I02Rik” is inactive: -0.0974.

In the case of GGUUUUGGACUUGAAUAACTT against Hectd2, the z-score is inactive: 0.446.

Turning to GGAGAUCCUGGAGAACUCUTT against Jph2, the z-score is inactive: -0.211. As for GCAGUUGGCAUAUUUUAUGTT against Olfr1033, the z-score is inactive: -0.248. The figure for GGCUCAUCUGACCAACCAGTT against Pabpc4 is inactive: 1.36.

In the case of GGAGGCAGAGCUGUCCAAATT against Timm13a, the z-score is inactive: -1.11. The figure for “GGGAUGUGAAAUGCACCUUTT against 2310015N21Rik” is inactive: -1.94; for “GGGUGUAGAAAAGAAGAAATT against A530088I07Rik” it is inactive: -1.28. Regarding “GGGCACAGGCAACAUGCUUTT against 9430062J17Rik”, the z-score was inactive: 1.02. The value for GACUGGAGAACAGCAGUUGTT against Amh was inactive: -0.429; that for GGACUUCAGCCUCAUCCUGTT against Bcap37 was inactive: -2.31. The value for GGUUACGAGAGAUGUUUGGTT against Sara2 was inactive: 1; that for GGUUGAUUCUUAAAUUGUGTT against Slc6a5 was inactive: 1.13. Take CCCACUCAAAUCUAUCAAGTT against Otof: the z-score is inactive: 1.12. With “GGUUCAGCAAACCUACAAATT against 1100001I19Rik”, the z-score is inactive: -0.412.

Consider GGUCUUAAAUAAUCUGGUCTT against Olfr959, for which the z-score was inactive: 0.758. For CCUAUGUCACUAAGGCACGTT against Nudt13, the z-score is inactive: 0.0547. The value for “GGAAGUCCUAUGAUUAAACTT against 2310008M20Rik” was inactive: 0.0693; that for GGAUACAUUCCAGACAUACTT against Map3k2 was inactive: -0.51; that for CCAUUAAUUACGUGUUUGUTT against Dixdc1 was inactive: 0.568.

Take “GGCAUUAAUAUGUCUGACUTT against D1Ertd251e”: the z-score was inactive: -1.9.

In the case of GGACAAGUCAAUUUGUUGGTT against Zfp36l1, the z-score was inactive: 1.11.

For the sequence GCAACCAGAGAAAGUUGAGTT against Scx, the z-score is inactive: -0.317. The value for GGUAUAUGAGCAGCUGUCCTT against Uxt was inactive: -0.968. As for GGAACCACACCAUGUGAAATT against Prdm5, the z-score is inactive: 0.301. The value for CCUAGUAAUCAGUUUGAAUTT against Ak4 was inactive: 0.076. For GGAAAUCUCCUAGAAGAAATT against Mrps18b, the z-score was inactive: -0.116.

For GCUGCUAAUAUCAAUAACGTT against Prf1, the z-score is inactive: -0.681. As to CGAGUGUUCCUCCAAGUGCTT against Fhl5, the z-score was inactive: -1.45. The value for GGAGUACCAACCAGAUUUATT against Cdc26 was inactive: -1.59. Take GGGUCCUCUUUCUCCUGUUTT against Ier3: the z-score is inactive: -1.2.

On to “GGACCAGGGCAAAAUAUGATT against D730048I06Rik”, for which the z-score is inactive: 0.866. The value for GGCCAGGUAACUCUUACAATT against Trpv1 was inactive: 0.987; that for “CGAAGUUCACUUCUUUGAGTT against D3Ertd194e” was inactive: 0.699. For the sequence GGAGUUCAUGAUUCUGCCATT against Eno3, the z-score is inactive: -1.28. Take CGAUACUGAUCACUCCUAUTT against Ugcgl1: the z-score was inactive: -0.456. As for GGGUCCUAGAGACUUUGAATT against Txndc5, the z-score is inactive: -0.86. With CCGUUCAAACUACUUGCUGTT against Smad7, the z-score is inactive: 1.85.

Take GGAGAAAACCAAACAAUGATT against Gpr156: the z-score is inactive: -1.09. In the case of “GGCUAAACUCAAACUCACATT against D630029K05Rik”, the z-score is inactive: -0.503.

Regarding GGCUGAACAGAUAAAUCAGTT against Stoml2, the z-score was inactive: -0.652. The value for GCUAAAGUCGGAAAAUCAATT against Scoc was inactive: 0.448; that for GGCAAGCUGAAGAUGAACATT against Ntn1 was inactive: 0.736; that for GGACAUCCAGACAAUGAGGTT against AW060714 was inactive: 0.386. The figure for GGUGGACCAUUCUUUUUCUTT against Zfp57 is inactive: 0.645; for AUUCUGCAAGUGCCGUAUGTT against Fcrlm2 it is inactive: -1.89; for GCAUGAAGAGGCAAAGGCUTT against Igfbp1 it is inactive: -0.909. The figure for “GGUUGUGGAUCAUUAUGAATT against 2310020H20Rik” is inactive: -3.21; for GGCACAUAUGAGGACUACCTT against BC037527 it is inactive: 0.972. Consider GCUUGAUUAGGUAGGAAUATT against Stk32a, for which the z-score was inactive: -0.291. The value for CGUGCAAUCCGAUUUGUUGTT against Acaca was inactive: -0.036. The value for GCCAAACUAUCAGAGAUGGTT against BC031853 was inactive: 0.373; that for CCCGGAGUGGUCAGAAGUATT against Mapkapk2 was inactive: -1.09; that for GCAUUUAGGUCUGAUAAAGTT against Gpr61 was inactive: -0.0963. The figure for GGGCAAAUAUGUUCUCAUUTT against Ndst3 is inactive: -0.00739; for “GGAUCGUUUUAAUAGUCUGTT against 2600005O03Rik” it is inactive: -0.952; for GGCAACAGACAUUCAUCUUTT against Mfng it is inactive: -0.665.

As for GGGAUUUUGAGUUUGAUGCTT against AI790326, the z-score was inactive: 0.46. The value for GGUUUAUGCAAUGAAGCUUTT against Rock2 was inactive: -0.276. Consider GGUAUGAACCGUGAUCCUCTT against Lrrtm4, for which the z-score is inactive: 0.248.

With GGAACAGCAGUUUUUGUUUTT against Rnf44, the z-score was inactive: -0.113. Consider GGAAACUGAAAAACAGAGUTT against Xbp1, for which the z-score was inactive: -0.321. The figure for GGGAAUCAAAGGCUUUGGGTT against Ms4a1 is inactive: 0.65; for GGACUUCUUGCUGGUCUAGTT against Cmar it is inactive: -1.14; for GGGCCUCUUCCUUAAGCAUTT against Snx8 it is inactive: -1.01. The figure for “CGGAUGUGCCAUCCAUCAGTT against 5830405N20Rik” is inactive: 1.39; for GGCUGUGAAAAAACUAGAATT against Serpina1e it is inactive: -0.121.

For GGUUGUCUUCAACACCAAATT against Lgals7, the z-score was inactive: -0.587. Regarding GGCCCUAGCAGAUGAAAAATT against Ubl4, the z-score is inactive: -0.29.

Consider GGUGUCGACAGGAUGGAAUTT against Adamts7, for which the z-score is inactive: 1.8. The value for GCUUCUGUUCAAAUACUUATT against Tal1 was inactive: -0.0783.

On to GCAAGAAGUAAUCAACUUUTT against Rqcd1, for which the z-score is active: 2. The value for CCCUAAUUCAUUAGCUAUATT against Dhdds was inactive: 0.747; that for “GCCACGGCCAGUAAAACAUTT against E030027H19Rik” was inactive: 0.924; that for “CGACAGAGGAAGGUAUUGGTT against 5730591C18Rik” was inactive: -0.64.

Take GGCUUUUUGCUUUAGCUUUTT against Cfl1: the z-score is inactive: -0.0664. For GGGCCAUUACAGAGUUUCUTT against Apobec1, the z-score was inactive: 0.212. The figure for GCCUAAAUUUAUUCAGGUUTT against Neurod1 is inactive: 2.28; for GCUUUAGAGUUCAAUAGUCTT against Zfp592 it is inactive: 0.477.

With CGUGGAUCGGAACAGUAUCTT against Lrrc10, the z-score was inactive: -0.779. Take GCAGUAAAGCUUGUGUAGGTT against Mpdu1: the z-score was inactive: 0.303. The figure for GGCUGAUCCAUUUUCACAATT against Adam6 is inactive: 0.00954; for GCCAAUUAAUGAUUGCUUUTT against Zfp322a it is inactive: -0.131; for “CCACAAGCUUCAAUGACACTT against 6430571L13Rik” it is inactive: 0.321. As to GGACUUCCAGAGCUGUUUUTT against Tera, the z-score was inactive: -0.107. The value for CCGUCUAUGGUUCAAGGUCTT against Cdca8 was inactive: 0.106; that for GCUACAGGGAAGUAUUGAATT against Apc was inactive: 1.26; that for GGAAUCACAGUGCAGAAGGTT against Olfr1262 was inactive: 0.562. As for GCAGGUCCUGACCUAUGUGTT against Cyp27b1, the z-score was inactive: -0.276. The figure for GCGAGCUUUAACCUUUCCATT against Olfr1028 is inactive: -0.613; for GGUUCAGGAGAACUUCAGUTT against Ambp it is inactive: 0.75. For the sequence GGUAGCAGCCUUCCGACAUTT against Mtmr9, the z-score is inactive: 2.48. The figure for GGAGCAAAUCCAGAACCGATT against Trim27 is inactive: 1.34; for GGAGAACUACCUGUCAGAATT against Tnni2 it is inactive: -0.31. The value for GGCCAACCAAGAGGACAAUTT against Nup107 was inactive: -2.19; that for GGUGAACCUUGGUACCCAUTT against Mrps18b was inactive: -0.809; that for “CGGUUACAAUUCAGUGAUATT against C230008H04Rik” was inactive: 0.278.
